Measured values reported in PMC3180244.
These are yes or no findings as the source states them, for the method shown. Some entries that bind do so weakly or less than the wild type.

Chains of the proteins cited; added tags and fusions are not shown.
UniProt Q921E6: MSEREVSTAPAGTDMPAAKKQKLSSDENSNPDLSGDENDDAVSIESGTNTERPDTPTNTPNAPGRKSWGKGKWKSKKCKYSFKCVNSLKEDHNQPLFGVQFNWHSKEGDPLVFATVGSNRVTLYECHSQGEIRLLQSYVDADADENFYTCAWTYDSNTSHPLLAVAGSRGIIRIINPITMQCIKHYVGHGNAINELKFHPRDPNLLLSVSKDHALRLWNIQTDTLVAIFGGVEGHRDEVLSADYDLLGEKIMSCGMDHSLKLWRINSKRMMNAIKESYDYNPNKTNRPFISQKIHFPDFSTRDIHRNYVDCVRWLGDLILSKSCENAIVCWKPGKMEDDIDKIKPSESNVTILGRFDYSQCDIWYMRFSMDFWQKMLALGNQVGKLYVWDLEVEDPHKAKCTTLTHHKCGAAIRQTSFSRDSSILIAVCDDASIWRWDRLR
UniProt Q80U70: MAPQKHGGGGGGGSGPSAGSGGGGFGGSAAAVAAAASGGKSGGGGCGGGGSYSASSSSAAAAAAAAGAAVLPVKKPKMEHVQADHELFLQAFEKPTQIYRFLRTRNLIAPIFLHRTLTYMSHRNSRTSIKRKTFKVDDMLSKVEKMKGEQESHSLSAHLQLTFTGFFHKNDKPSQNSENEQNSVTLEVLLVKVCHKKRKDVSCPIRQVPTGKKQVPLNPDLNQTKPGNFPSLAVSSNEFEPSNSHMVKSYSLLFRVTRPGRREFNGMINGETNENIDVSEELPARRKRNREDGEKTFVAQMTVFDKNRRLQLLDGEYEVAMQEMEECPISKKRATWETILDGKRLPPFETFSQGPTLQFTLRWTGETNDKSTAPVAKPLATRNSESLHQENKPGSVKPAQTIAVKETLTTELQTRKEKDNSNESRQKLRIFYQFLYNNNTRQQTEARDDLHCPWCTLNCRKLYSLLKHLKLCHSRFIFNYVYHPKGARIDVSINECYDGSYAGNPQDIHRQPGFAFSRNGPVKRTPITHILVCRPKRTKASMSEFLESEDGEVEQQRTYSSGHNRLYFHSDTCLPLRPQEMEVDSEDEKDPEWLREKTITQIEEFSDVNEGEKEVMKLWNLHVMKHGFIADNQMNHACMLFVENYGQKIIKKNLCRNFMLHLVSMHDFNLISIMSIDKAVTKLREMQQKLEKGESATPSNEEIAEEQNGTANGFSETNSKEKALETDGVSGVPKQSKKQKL
UniProt P70351: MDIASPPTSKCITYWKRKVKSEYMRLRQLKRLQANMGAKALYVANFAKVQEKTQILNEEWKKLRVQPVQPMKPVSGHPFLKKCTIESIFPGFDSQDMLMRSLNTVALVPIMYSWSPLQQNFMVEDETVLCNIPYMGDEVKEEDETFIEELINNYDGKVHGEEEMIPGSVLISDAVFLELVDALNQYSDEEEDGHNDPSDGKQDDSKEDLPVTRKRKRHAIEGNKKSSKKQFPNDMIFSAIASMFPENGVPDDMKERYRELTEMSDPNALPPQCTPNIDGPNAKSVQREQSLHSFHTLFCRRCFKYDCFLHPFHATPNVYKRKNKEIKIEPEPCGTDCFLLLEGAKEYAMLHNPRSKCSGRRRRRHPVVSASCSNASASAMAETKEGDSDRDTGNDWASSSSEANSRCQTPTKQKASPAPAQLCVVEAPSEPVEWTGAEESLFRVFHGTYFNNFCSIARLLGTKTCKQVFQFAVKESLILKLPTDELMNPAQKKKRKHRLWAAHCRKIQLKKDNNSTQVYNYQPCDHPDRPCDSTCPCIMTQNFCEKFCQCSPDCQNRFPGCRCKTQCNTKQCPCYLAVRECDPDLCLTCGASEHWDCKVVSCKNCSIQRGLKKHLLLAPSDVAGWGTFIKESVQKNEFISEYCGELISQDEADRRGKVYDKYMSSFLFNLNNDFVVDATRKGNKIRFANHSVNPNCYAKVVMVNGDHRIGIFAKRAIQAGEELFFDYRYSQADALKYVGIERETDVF
UniProt Q61188: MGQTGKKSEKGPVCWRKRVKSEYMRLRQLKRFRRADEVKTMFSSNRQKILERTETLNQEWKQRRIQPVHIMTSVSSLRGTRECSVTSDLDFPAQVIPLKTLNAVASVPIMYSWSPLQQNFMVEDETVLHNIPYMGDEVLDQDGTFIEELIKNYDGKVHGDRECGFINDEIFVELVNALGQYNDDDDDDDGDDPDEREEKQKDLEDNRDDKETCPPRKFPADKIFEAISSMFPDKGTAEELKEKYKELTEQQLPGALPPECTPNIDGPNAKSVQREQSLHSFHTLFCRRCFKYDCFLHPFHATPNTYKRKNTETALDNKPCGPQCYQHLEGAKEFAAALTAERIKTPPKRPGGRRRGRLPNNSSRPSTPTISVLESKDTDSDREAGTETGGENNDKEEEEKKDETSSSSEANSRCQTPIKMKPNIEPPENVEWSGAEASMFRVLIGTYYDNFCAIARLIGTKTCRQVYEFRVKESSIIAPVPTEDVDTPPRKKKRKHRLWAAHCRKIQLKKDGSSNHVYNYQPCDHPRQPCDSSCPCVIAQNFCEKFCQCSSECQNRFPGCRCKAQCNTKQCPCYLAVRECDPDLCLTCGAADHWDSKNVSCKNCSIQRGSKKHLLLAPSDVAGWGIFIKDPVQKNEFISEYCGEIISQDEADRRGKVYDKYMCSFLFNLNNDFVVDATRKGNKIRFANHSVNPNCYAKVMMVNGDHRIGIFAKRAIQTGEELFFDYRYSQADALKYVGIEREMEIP

Assays:
[1] = target: Eed (mouse (endogenous in C2C12)) (UniProt Q921E6); experiment: SEC; nuclear extract of C2C12 myotubes (DM, 72 h) immunodepleted of Ezh2 (five serial depletions with AC22 EZH2 antibody on Protein-A beads), Superose 6 PC 3.2/30 in IP (300) buffer; fractions analysed by immunoblot
[2] = target: Suz12 (mouse (endogenous in C2C12)) (UniProt Q80U70); experiment: as above
[3] = target: Eed (mouse (endogenous in C2C12)) (UniProt Q921E6); experiment: SEC; nuclear extracts of C2C12 myoblasts (GM) and myotubes (DM, 72 h) on Superose 6 PC 3.2/30 in IP (300) buffer (50 mM Tris-HCl pH 7.5, 300 mM NaCl, 5% glycerol, 0.2% Igepal, 1 mM DTT); fractions analysed by immunoblot
[4] = target: Suz12 (mouse (endogenous in C2C12)) (UniProt Q80U70); experiment: as above

binding [1] | binding [2] | binding [3] | binding [4] | Substance
binds | binds | binds | binds | Ezh1 (from UniProt P70351 1-747)
– | – | binds | – | Ezh2 (from UniProt Q61188 1-746)
binds | – | binds | – | Suz12 (from UniProt Q80U70 1-741)
